# Inconclusive means that the source gave no clear call. Such entries were picked first, then a sample of the others. For some assays here: A potency beside an inconclusive call is a rough fit, not a confirmed value. Active and inactive are the calls of the source. Unless noted, cut-off not given; nearly all actives show AC50 up to about 26 µM.
# Assays:
# [1] = growth inhibition of DIPG glioma cells, dose response, cell-based, SU-DIPG-XVII, MIPE5.0, CellTiter-Glo, qHTS (AID 1347060); conditions: SU-DIPG-XVII viability, CellTiter-Glo ATP luminescence;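 on AC50: cells exposed to compound for 48 hours before viability readout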
# [2] = growth inhibition of DIPG glioma cells, dose response, cell-based, SU-DIPG-XIII, MIPE5.0, CellTiter-Glo, qHTS (AID 1347064; cut-off not given, nearly all actives have AC50 up to about 23 µM;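 on AC50: cells exposed to compound for 48 hours before the viability read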); conditions: SU-DIPG-XIII viability, CellTiter-Glo ATP luminescence
# [3] = JHH-DIPG-1 glioma cell viability, MIPE5.0 library, CellTiter-Glo luminescence, qHTS (AID 1347067); conditions: JHH-DIPG-1 glioma viability, CellTiter-Glo ATP luminescence;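 further: cells exposed to compound for 48 hours before readout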
# [4] = SU-DIPG-XXV glioma cell viability, MIPE5.0 library, qHTS (AID 1347068; cut-off not given, nearly all actives have IC50 up to about 30 µM;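 further: cells exposed to compound for 48 hours before viability readout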)
# [5] = viability loss in pontine glioma line – cell-based, SU-DIPG-XXV, MIPE5.0, CellTiter-Glo, qHTS, dose response (AID 1347065); conditions: CellTiter-Glo ATP luminescence;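 further: cells exposed to compound for 48 hours before ATP readout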
smiles,measurement,setting,value
Cn1cncc1C(N)(c1ccc(Cl)cc1)c1ccc2c(c1)c(-c1cccc(Cl)c1)cc(=O)n2C (stereo not drawn),AC50,[1],active: 18.6 µM
same,AC50,[2],active: 16.6 µM
same,AC50,[3],active: 18.6 µM
same,IC50,[4],inconclusive: 0.0417 µM [cytotoxic]
CN1CCN(CCCNc2ncc(Cl)c(-c3cc4c(C(=O)NC5CC5)cccc4s3)n2)CC1,AC50,[1],inconclusive: 26.3 µM [cytotoxic]
same,AC50,[2],inconclusive: 29.5 µM [cytotoxic]
same,AC50,[3],inconclusive: 37.2 µM [cytotoxic]
C=CC(=O)Nc1ccc(F)c(-c2ncnc3[nH]cc(C(=O)OCC)c23)c1,AC50,[1],inconclusive: 14.8 µM [cytotoxic]
same,AC50,[2],inconclusive: 20.9 µM [cytotoxic]
same,AC50,[5],active: 18.6 µM
same,IC50,[4],inconclusive: 8.33 µM [cytotoxic]
CCOC(=O)[C@@]1(CCCCCCOc2ccc(Cl)cc2)CO1,outcome,[1],inactive
same,outcome,[2],inactive
same,AC50,[3],inconclusive: 33.2 µM [cytotoxic]
CC1(C)CCC2(CC1)N[C@@H](C(=O)N[C@@H]1CC[C@@H](C(N)=O)OC1)[C@H](c1ccnc(Cl)c1F)[C@]21C(=O)Nc2cc(Cl)ccc21,AC50,[1],inconclusive: 0.0802 µM [cytotoxic]
same,AC50,[2],active: 16 µM
same,AC50,[3],active: 20.1 µM
Cn1ncc2cc(-c3cnc(N)c(Cl)c3N3CCC4(CCNC4=O)CC3)ccc21,AC50,[1],inconclusive: 23.5 µM [cytotoxic]
same,AC50,[2],inconclusive: 46.8 µM [cytotoxic]
same,AC50,[5],active: 20.9 µM
same,IC50,[4],inconclusive: 9.34 µM
CN1CCN(c2ccc(OC(F)(F)F)c(Nc3ncc4c(n3)-c3c(c(C(N)=O)nn3CCO)CC4)c2)CC1,AC50,[1],inconclusive: 0.209 µM [cytotoxic]
same,AC50,[2],inconclusive: 0.118 µM [cytotoxic]
same,AC50,[3],inconclusive: 0.0525 µM [cytotoxic]
same,IC50,[4],inconclusive: 0.105 µM [cytotoxic]
CNCCCOc1cc(F)c(-c2c(Cl)nc3ncnn3c2N[C@@H](C)C(F)(F)F)c(F)c1,AC50,[1],active: 0.0833 µM
same,AC50,[2],inconclusive: 0.148 µM [cytotoxic]
same,AC50,[3],active: 0.105 µM
same,IC50,[4],active: 0.235 µM
N=C(N)c1ccc2nc(-c3cc(CC(=O)N[C@@H](CC(=O)O)C(=O)O)cc(-c4cc(S(N)(=O)=O)ccc4O)c3O)[nH]c2c1,outcome,[1],inactive
same,AC50,[2],inconclusive: 0.0166 µM [cytotoxic]
same,outcome,[3],inactive
COc1cc(N2CCN(C)CC2)ccc1Nc1ncc2c(n1)N(C)c1ccccc1C(=O)N2,AC50,[1],inconclusive: 33.2 µM [cytotoxic]
same,AC50,[2],inconclusive: 29.5 µM [cytotoxic]
same,AC50,[3],inconclusive: 29.5 µM [cytotoxic]
COc1cc2c(cc1OC)CN(CCc1ccc(-n3nnc(-c4cc(OC)c(OC)cc4NC(=O)c4cc(=O)c5ccccc5o4)n3)cc1)CC2,outcome,[1],inactive
same,AC50,[2],inconclusive: 1e-05 µM [cytotoxic]
same,outcome,[3],inactive

# Reprinted at random: 2 records from the list.
smiles,measurement,setting,value
CN1CCN(c2ccc(OC(F)(F)F)c(Nc3ncc4c(n3)-c3c(c(C(N)=O)nn3CCO)CC4)c2)CC1,IC50,[4],inconclusive: 0.105 µM [cytotoxic]
COc1cc2c(cc1OC)CN(CCc1ccc(-n3nnc(-c4cc(OC)c(OC)cc4NC(=O)c4cc(=O)c5ccccc5o4)n3)cc1)CC2,outcome,[1],inactive

# — PubChem BioAssay
